Data as given in PubChem BioAssay AID1259308 (NCATS, 2017)

Aim: 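Knock-downs that increase output of a recombinant reporter protein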 (primary screen)
System: human HEK293 embryonic kidney cells stably expressing firefly luciferase (HEK-CMV-Luc2-Hygro)
Knock-down reagent: single siRNA against human genes, 0.8 pmol siRNA per well
Timing: 72 h
Read-out: 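Reporter luminescence and viable-cell signal on separate replicate plates, given as percent of non-targeting control and median/MAD z-scores, plus per-cell luciferase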
Direction: total luciferase, z-score and total luciferase, % of control: higher = more reporter protein produced; luciferase per cell, z-score: higher = more reporter output per viable cell; viable cells, % of control: higher = more viable cells
Call rule: 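An siRNA counts as active if its total luciferase robust z-score exceeds 3; genes with two or more such siRNAs out of three were retested with fresh siRNAs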
Calls: active = raised luciferase; inactive = no rise
This is an unselected part of about 59,000 reagents. Over the whole deposit, about 1,510 (2.6%) are marked active. 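Calls use total luciferase alone and ignore viability, so some active siRNAs may act by altering cell number.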 The numbers tell different reagents against one gene apart.

| gene | reagent no. | total luciferase, z-score | total luciferase, % of control | luciferase per cell, z-score | viable cells, % of control | call |
| --- | --- | --- | --- | --- | --- | --- |
| TRIM61 (tripartite motif containing 61) | 1 | -1.31 | 55.9 | -1.77 | 99.6 | inactive |
| TRIM61 (tripartite motif containing 61) | 2 | 0.00158 | 81.9 | 0.498 | 80.3 | inactive |
| TRIM61 (tripartite motif containing 61) | 3 | -0.779 | 66.4 | -1.03 | 97.3 | inactive |
| SUMO1 (small ubiquitin like modifier 1) | 1 | 0.835 | 98.5 | 1.11 | 82.1 | inactive |
| SUMO1 (small ubiquitin like modifier 1) | 2 | -1.93 | 43.6 | -1.93 | 80.9 | inactive |
| SUMO1 (small ubiquitin like modifier 1) | 3 | 0.952 | 101 | 1.24 | 81.3 | inactive |
| GRTP1 (growth hormone regulated TBC protein 1) | 1 | 0.518 | 92.2 | 0.507 | 90.1 | inactive |
| GRTP1 (growth hormone regulated TBC protein 1) | 2 | 0.122 | 84.3 | 0.729 | 77.8 | inactive |
| GRTP1 (growth hormone regulated TBC protein 1) | 3 | -2.4 | 34.1 | -2.36 | 70.9 | inactive |
| THOP1 (thimet oligopeptidase 1) | 1 | 0.388 | 89.6 | 0.0549 | 98.7 | inactive |
| THOP1 (thimet oligopeptidase 1) | 2 | 0.669 | 95.2 | 0.498 | 93.3 | inactive |
| THOP1 (thimet oligopeptidase 1) | 3 | 1.54 | 113 | 0.854 | 100 | inactive |
| KCNN3 (potassium calcium-activated channel subfamily N member 3) | 1 | -0.84 | 65.2 | -0.785 | 89.6 | inactive |
| KCNN3 (potassium calcium-activated channel subfamily N member 3) | 2 | -1.41 | 53.9 | -1.34 | 85.7 | inactive |
| KCNN3 (potassium calcium-activated channel subfamily N member 3) | 3 | 1.18 | 105 | 0.273 | 110 | inactive |
| CEMIP2 (cell migration inducing hyaluronidase 2) | 1 | -1.21 | 57.9 | -1.85 | 105 | inactive |
| CEMIP2 (cell migration inducing hyaluronidase 2) | 2 | 0.132 | 84.5 | -0.59 | 110 | inactive |
| CEMIP2 (cell migration inducing hyaluronidase 2) | 3 | -1.11 | 59.8 | -0.966 | 86.2 | inactive |
| LOC729609 | 1 | 0.187 | 85.6 | 0.381 | 86.5 | inactive |
| LOC729609 | 2 | -0.616 | 69.6 | 0.545 | 67.4 | inactive |
| LOC729609 | 3 | -0.287 | 76.2 | -0.506 | 97.3 | inactive |
| DRC1 (dynein regulatory complex subunit 1) | 1 | 0.427 | 90.4 | 0.505 | 88.4 | inactive |
| DRC1 (dynein regulatory complex subunit 1) | 2 | 0.947 | 101 | 0.727 | 92.9 | inactive |
| DRC1 (dynein regulatory complex subunit 1) | 3 | -0.35 | 74.9 | 0.183 | 79.8 | inactive |
| EBF2 (EBF transcription factor 2) | 1 | 0.895 | 99.7 | 0.117 | 108 | inactive |
| EBF2 (EBF transcription factor 2) | 2 | -0.0647 | 80.6 | -0.0263 | 90.7 | inactive |
| EBF2 (EBF transcription factor 2) | 3 | -0.994 | 62.1 | -1.04 | 91.2 | inactive |
| ZNF322 (zinc finger protein 322) | 1 | -0.255 | 76.8 | -0.707 | 103 | inactive |
| ZNF322 (zinc finger protein 322) | 2 | 0.0312 | 82.5 | -0.165 | 96.3 | inactive |
| ZNF322 (zinc finger protein 322) | 3 | 4 | 161 | 4.27 | 58.7 | active |
| MMD2 (monocyte to macrophage differentiation associated 2) | 1 | 0.383 | 89.5 | -0.00315 | 100 | inactive |
| MMD2 (monocyte to macrophage differentiation associated 2) | 2 | -1.05 | 61 | -0.984 | 88.3 | inactive |
| MMD2 (monocyte to macrophage differentiation associated 2) | 3 | -1.38 | 54.3 | -1.36 | 86.9 | inactive |
| TAFAZZIN (tafazzin, phospholipid-lysophospholipid transacylase) | 1 | -0.14 | 79.1 | -0.487 | 100 | inactive |
| TAFAZZIN (tafazzin, phospholipid-lysophospholipid transacylase) | 2 | -0.832 | 65.3 | -1.47 | 107 | inactive |
| TAFAZZIN (tafazzin, phospholipid-lysophospholipid transacylase) | 3 | 0.5 | 91.8 | 0.32 | 94.3 | inactive |

Records above whose gene name starts with Z or z (3):
| gene | reagent no. | total luciferase, z-score | total luciferase, % of control | luciferase per cell, z-score | viable cells, % of control | call |
| --- | --- | --- | --- | --- | --- | --- |
| ZNF322 (zinc finger protein 322) | 1 | -0.255 | 76.8 | -0.707 | 103 | inactive |
| ZNF322 (zinc finger protein 322) | 2 | 0.0312 | 82.5 | -0.165 | 96.3 | inactive |
| ZNF322 (zinc finger protein 322) | 3 | 4 | 161 | 4.27 | 58.7 | active |

The results go on.
| gene | reagent no. | total luciferase, z-score | total luciferase, % of control | luciferase per cell, z-score | viable cells, % of control | call |
| --- | --- | --- | --- | --- | --- | --- |
| COL6A3 (collagen type VI alpha 3 chain) | 1 | 0.596 | 93.7 | 1.05 | 79.5 | inactive |
| COL6A3 (collagen type VI alpha 3 chain) | 2 | -0.4 | 73.9 | -0.925 | 105 | inactive |
| COL6A3 (collagen type VI alpha 3 chain) | 3 | 0.313 | 88.1 | 1.27 | 70.5 | inactive |
| LRATD2 (LRAT domain containing 2) | 1 | 0.677 | 95.3 | 2.88 | 50 | inactive |
| LRATD2 (LRAT domain containing 2) | 2 | -0.182 | 78.3 | 0.538 | 75.9 | inactive |
| LRATD2 (LRAT domain containing 2) | 3 | -0.34 | 75.1 | -0.412 | 93.6 | inactive |
| HEATR6 (HEAT repeat containing 6) | 1 | 2.85 | 139 | 3.18 | 67 | inactive |
| HEATR6 (HEAT repeat containing 6) | 2 | -0.0477 | 80.9 | -0.168 | 94.5 | inactive |
| HEATR6 (HEAT repeat containing 6) | 3 | 1.84 | 119 | 1.48 | 89.8 | inactive |
| GDPD4 (glycerophosphodiester phosphodiesterase domain containing 4) | 1 | 0.116 | 84.2 | -0.286 | 101 | inactive |
| GDPD4 (glycerophosphodiester phosphodiesterase domain containing 4) | 2 | -1.35 | 55.1 | -1.66 | 95.3 | inactive |
| GDPD4 (glycerophosphodiester phosphodiesterase domain containing 4) | 3 | 4.38 | 169 | 2.6 | 95.3 | active |
| GRIN1 (glutamate ionotropic receptor NMDA type subunit 1) | 1 | 0.832 | 98.4 | 0.345 | 100 | inactive |
| GRIN1 (glutamate ionotropic receptor NMDA type subunit 1) | 2 | 0.41 | 90 | 0.678 | 84.2 | inactive |
| GRIN1 (glutamate ionotropic receptor NMDA type subunit 1) | 3 | -1.49 | 52.3 | -1.73 | 92.1 | inactive |
| EXO5 (exonuclease 5) | 1 | 0.715 | 96.1 | 2.04 | 62.8 | inactive |
| EXO5 (exonuclease 5) | 2 | -0.0796 | 80.3 | -0.557 | 104 | inactive |
| EXO5 (exonuclease 5) | 3 | -0.0541 | 80.8 | -0.716 | 109 | inactive |
| VPS29 (VPS29 retromer complex component) | 1 | -0.288 | 76.2 | -0.123 | 87.9 | inactive |
| VPS29 (VPS29 retromer complex component) | 2 | -1.03 | 61.4 | -0.843 | 85.7 | inactive |
| VPS29 (VPS29 retromer complex component) | 3 | -0.84 | 65.2 | 0.537 | 63.2 | inactive |
